According to patent US20230338424A1 (LENTIGEN TECHNOLOGY, published 2023):
Results are given in words; binding and its absence hold for the method and conditions named. Some entries that bind do so weakly or less than the wild type. Where a sequence is shown, tags or fusion partners need not be part of it.

Biological target: T1, recombinant human CD123-Fc (human, UniProt P26951 19-305, limits assumed)
T1 construct: Treated as one molecule; also called CD123-Fc peptide (Novoprotein); recombinant IL3R-alpha Fc-tagged; not shown: Fc tag
T1 sequence (looked up): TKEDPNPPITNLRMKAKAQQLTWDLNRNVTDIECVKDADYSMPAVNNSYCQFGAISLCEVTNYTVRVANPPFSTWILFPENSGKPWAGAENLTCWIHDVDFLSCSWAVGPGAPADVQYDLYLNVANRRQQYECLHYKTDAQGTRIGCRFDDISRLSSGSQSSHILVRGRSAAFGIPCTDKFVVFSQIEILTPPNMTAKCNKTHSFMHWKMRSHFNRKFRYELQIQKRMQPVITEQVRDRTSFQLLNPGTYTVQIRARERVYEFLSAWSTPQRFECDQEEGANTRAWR
Assay: yeast display, MACS enrichment then FACS sort with 1 ug/ml CD123-Fc, anti-human Fc PE

B1: CD123 binder MT-32 (scFv)
scFv: QVQLQQSGPGLVKPSQTLSLTCAISGDSVSSNSAAWNWIRQSPSRGLEWLGRTYYRSKWYNDYAVSVKSRITINPDTSKNQFSLQLNSVTPEDMAVYYCARGVDSSFDYWGQGTLVTVSSGGGGSGGGGSGGGGSQSVVTQPPSVSAAPGQSVTISCSGSSSTVGDNYVSWYQQLPGTAPKLLIFDDYKRPSGVPDRFSGSQSGTSASLVITGLQAEDEADYYCQSYDSSLSGYVFGPGTKVTVLG
With B1 the binding was “binds”.
